In experiment [1] the test system is NQO1 activation in BEAS-2B cells. In words: BEAS-2B cellular MTT assay of NQO1 activation, 0% HSA. The settings on record: read-out: BEAS EC50 (nM) Serum Free W. Here is the method: The growth rate of the BEAS-2B cells changed based on the lot of BEGM SingleQuots in the BEGM media. The cell growth rate was determined for each lot of SingleQuots. Ideally, cells were thawed into media with the new lot of SingleQuots and grown for two passages before testing; however, growing an active culture in the new lot of media for two to three passages before testing was also acceptable. Until the cell growth rate was determined, cells were seeded at different densities (cells/cm^2) in multiple tissue culture flasks in order to avoid the cells becoming more than 70% confluent. Cells should not go above 70% confluent as the cells differentiate when they become confluent. After the cells were grown in the new lot of media as described above, the number of cells per well needed to seed in the collagen plates was determined by seeding different numbers of cells per well and incubating for 48 hours. […]
If complete media was to be used immediately, BEBM basal media was warmed to room temperature in the hood, but not as high as 37° C. […] Once all components were added, the label that comes with the SingleQuots kit was put on the bottle of media and the date was recorded. […]
Media was added to each flask to a total volume of 8-10 mL per flask and transferred to 15 mL conical tube(s). […] The suspension was mixed with a pipette, an aliquot was removed, and the cells were counted. […]

Chains of the proteins cited; added tags and fusions are not shown.
UniProt Q14145, whole entry: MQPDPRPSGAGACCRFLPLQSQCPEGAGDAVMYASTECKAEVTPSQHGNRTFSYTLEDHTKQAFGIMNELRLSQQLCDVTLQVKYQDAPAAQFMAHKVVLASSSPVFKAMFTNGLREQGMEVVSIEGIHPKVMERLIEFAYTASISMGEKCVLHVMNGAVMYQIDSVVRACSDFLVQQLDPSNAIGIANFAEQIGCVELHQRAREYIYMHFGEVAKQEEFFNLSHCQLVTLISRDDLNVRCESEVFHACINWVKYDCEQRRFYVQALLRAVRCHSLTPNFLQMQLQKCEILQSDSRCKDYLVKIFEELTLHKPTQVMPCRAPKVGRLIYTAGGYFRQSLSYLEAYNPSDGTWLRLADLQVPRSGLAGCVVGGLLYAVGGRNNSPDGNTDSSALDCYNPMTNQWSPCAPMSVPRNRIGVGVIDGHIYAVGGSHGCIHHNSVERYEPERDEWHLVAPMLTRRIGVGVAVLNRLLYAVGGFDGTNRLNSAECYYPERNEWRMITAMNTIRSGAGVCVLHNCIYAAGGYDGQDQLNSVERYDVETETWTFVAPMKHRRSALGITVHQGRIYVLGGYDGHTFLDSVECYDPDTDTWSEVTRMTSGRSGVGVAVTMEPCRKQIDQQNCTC

Experiment [2] has as its target HIS-Keap1 full length / Biotin-Nrf2 (16-mer) (Homo sapiens, UniProt Q14145). The experiment is described as follows: Nrf2-Keap1 biochemical assay (TR-FRET). The settings on record: read-out: ENZ IC50. For orientation: TR-FRET usually uses a lanthanide donor and a delayed reading to cut background.

Where “and” joins values, the source holds several entries; their conditions need not be identical. Equal values may be shown once. Structures were worked out from names or drawings and are uncertain.

What is called EC50 is the concentration at which the effect is half-maximal. The IC50 is the concentration at which inhibition is half-maximal.

As to `Cc1cc2ncc1C(CC(=O)O)c1ccc3c(c1)CN(CC3)C(=O)c1ccc(cc1)CCCCCO2` (racemic), the EC50 in experiment [1] was 0.1 nM. Besides, the IC50 in experiment [2] is 0.3 nM and 0.4 nM.
